Results reported in patent US9217032B2, “Methods for treating colorectal cancer” (LES LABORATOIRES SERVIER, priority 2010, dated 2015).
Some results were stated once for a whole list of compounds, not compound by compound.

B1: MAb19: murine N-terminal anti-hPG monoclonal antibody, hybridoma 1B3B4F11, VH SEQ ID NO:62, VL SEQ ID NO:66 (antibody, V domains shown)
VH: DVQLQESGPGLVKPSQSLSLTCTVTGYSITSDYAWNWIRQFPGNKLEWMGYISFSGYTSYNPSLKSRISVTRDTSRNQFFLQLTSVTTEDTATYYCAREVNYGDSYHFDYWGQGTIVTVSS
VL: QLALTQSSSASFSLGASAKLTCTLSSQHRTYTIEWYQQQSLKPPKYVMEVKKDGSHSTGHGIPDRFSGSSSGADRYLSISNIQPEDEAIYICGVGDAIKGQSVFVFGGGTKVTVL
B2: MAb3: murine N-terminal anti-hPG monoclonal antibody, hybridoma 6B5B11C10, VH SEQ ID NO:12, VL SEQ ID NO:13 (antibody, V domains shown)
VH: EVQLQQSGTVLARPGASVKMSCKASGYIFTSYWVHWVKQRPGQGLEWIGGFYPGNSDSRYNQKFKGKATLTAVTSASTAYMDLSSLTNEDSAVYFCTRRDSPQYWGQGTTLTVSS
VL: DVLMTQTPLSLPVSLGDQASISCRSSQSIVHSNGNTYLEWYLQKPGQSPKLLIYKVSNRFSGVPDRFSGSGSGTDFTLKISRLEAEDLGVYYCFQGSHVPFTFGGGTKLEIK
B3: MAb4: murine N-terminal anti-hPG monoclonal antibody, hybridoma 20D2C3G2, VH SEQ ID NO:14, VL SEQ ID NO:15 (antibody, V domains shown)
VH: QVQLQQSGAELMKPGASVKISCKATGYTFSSSWIEWLKQRPGHGLEWIGEFLPGSGSTDYNEKFKGKATFTADTSSDTAYMLLSSLTSEDSAVYYCATDGNYDWFAYWGQGTLVTVSA
VL: DLVMTQTPLSLPVSLGDQASISCRSSQSLVHSSGVTYLHWYLQKPGQSPKLLIYKVSNRFSGVPDRFSGSGSGTDFTLKISRVEAEDLGVYFCSQSTHVPPTFGSGTKLEIK
B4: MAb8: murine C-terminal anti-hPG monoclonal antibody, hybridoma 1C10D3B9, VH SEQ ID NO:59, VL SEQ ID NO:63 (antibody, V domains shown)
VH: EVQLVESGGGLVKPGGSLKLSCAASGFTFTTYAMSWVRQTPEKRLEWVATISSGGTYTYYPDSVKGRFTISRDNAKNALYLQMSSLRSEDTAMYYCATQGNYSLDFWGQGTSLTVSS
VL: DIVMTQAASSNPVTLGTSASISCRSSKSLRHTKGITFLYWYLQKPGQSPQLLIYQMSNLASGVPDRFSSSGSGTDFTLRISRVEAEDLGVYYCAQNLELPLTFGAGTKLELK

Experiments:
colorectal cancer cells = test: Neutralizing activity: growth of colorectal cancer cells in an in vitro assay; type: cell-based, human; conditions: at the concentration tested
hPG = biological target: T1, hPG (Homo sapiens, UniProt P01350); test: Specificity of anti-hPG antibodies (ELISA); type: binding
T1 sequence (P01350 22-95): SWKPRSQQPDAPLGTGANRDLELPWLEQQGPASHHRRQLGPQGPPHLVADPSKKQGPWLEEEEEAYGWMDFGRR

| Molecule | inhibition of growth of colorectal cancer cells (neutralizing activity) (colorectal cancer cells) | specific binding of hPG (hPG) |
| --- | --- | --- |
| B1 | exhibited inhibitory activity to varying degrees | capable of specifically binding hPG |
| B2 | exhibited inhibitory activity to varying degrees | – |
| B3 | exhibited inhibitory activity to varying degrees | – |
| B4 | exhibited inhibitory activity to varying degrees | capable of specifically binding hPG |
